Results reported in PMC4549324.
Results are given in words; binding and its absence hold for the method and conditions named. In cells and extracts the contact can be indirect. Some entries that bind do so weakly or less than the wild type. For some assays here: Where a sequence is shown, tags or fusion partners need not be part of it. Values belong to the molecule of their own block, whether it stands above or below them.

Columns and labels:
[1] = target: HA-tagged mineralocorticoid receptor (pCMV-HA-MR) (UniProt P08235); assay: co-IP; HEK293 co-transfected with MR-HA and HDAC4-, HDAC5- or HDAC7-Flag; Aldo 10 nM for 30 min; whole-cell lysates; MR precipitated with anti-HA antibody, HDACs detected with anti-Flag antibody
[2] = target: T1, HDAC3-Flag, O15379; assay: co-IP; HEK293 co-transfected with HDAC3-Flag and HDAC4-, HDAC5- or HDAC7-Flag; Aldo treatment; HDAC3 immunoprecipitated with an antibody, class II HDACs detected by western blotting; details: remark: other sources report otherwise
T1 chain: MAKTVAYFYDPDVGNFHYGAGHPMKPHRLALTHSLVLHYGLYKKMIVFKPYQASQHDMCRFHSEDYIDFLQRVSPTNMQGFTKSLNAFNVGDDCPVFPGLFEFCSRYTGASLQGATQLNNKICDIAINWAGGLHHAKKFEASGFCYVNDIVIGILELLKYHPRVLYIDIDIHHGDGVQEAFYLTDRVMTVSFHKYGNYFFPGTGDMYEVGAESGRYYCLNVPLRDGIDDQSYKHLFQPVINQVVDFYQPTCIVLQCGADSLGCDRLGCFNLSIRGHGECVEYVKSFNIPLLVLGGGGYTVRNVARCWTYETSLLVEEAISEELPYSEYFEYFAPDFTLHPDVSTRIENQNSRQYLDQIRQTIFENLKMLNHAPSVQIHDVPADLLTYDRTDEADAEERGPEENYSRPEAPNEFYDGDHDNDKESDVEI

binding [1]: binds
Molecule: HDAC5-Flag (Addgene plasmid 13822) (from UniProt Q9UQL6 1-1122) (enzyme)

binding [2]: no binding
B1: HDAC7-Flag (Addgene plasmid 13824), Q8WUI4 1-952 (enzyme)
chain: MDLRVGQRPPVEPPPEPTLLALQRPQRLHHHLFLAGLQQQRSVEPMRLSMDTPMPELQVGPQEQELRQLLHKDKSKRSAVASSVVKQKLAEVILKKQQAALERTVHPNSPGIPYRTLEPLETEGATRSMLSSFLPPVPSLPSDPPEHFPLRKTVSEPNLKLRYKPKKSLERRKNPLLRKESAPPSLRRRPAETLGDSSPSSSSTPASGCSSPNDSEHGPNPILGSEALLGQRLRLQETSVAPFALPTVSLLPAITLGLPAPARADSDRRTHPTLGPRGPILGSPHTPLFLPHGLEPEAGGTLPSRLQPILLLDPSGSHAPLLTVPGLGPLPFHFAQSLMTTERLSGSGLHWPLSRTRSEPLPPSATAPPPPGPMQPRLEQLKTHVQVIKRSAKPSEKPRLRQIPSAEDLETDGGGPGQVVDDGLEHRELGHGQPEARGPAPLQQHPQVLLWEQQRLAGRLPRGSTGDTVLLPLAQGGHRPLSRAQSSPAAPASLSAPEPASQARVLSSSETPARTLPFTTGLIYDSVMLKHQCSCGDNSRHPEHAGRIQSIWSRLQERGLRSQCECLRGRKASLEELQSVHSERHVLLYGTNPLSRLKLDNGKLAGLLAQRMFVMLPCGGVGVDTDTIWNELHSSNAARWAAGSVTDLAFKVASRELKNGFAVVRPPGHHADHSTAMGFCFFNSVAIACRQLQQQSKASKILIVDWDVHHGNGTQQTFYQDPSVLYISLHRHDDGNFFPGSGAVDEVGAGSGEGFNVNVAWAGGLDPPMGDPEYLAAFRIVVMPIAREFSPDLVLVSAGFDAAEGHPAPLGGYHVSAKCFGYMTQQLMNLAGGAVVLALEGGHDLTAICDASEACVAALLGNRVDPLSEEGWKQKPNLNAIRSLEAVIRVHSKYWGCMQRLASCPDSWVPRVPGADKEEVEAVTALASLSVGILAEDRPSEQLVEEEEPMNL
